Reference: article PMC4735636
These are yes or no findings as the source states them, for the method shown. In cells and extracts the contact can be indirect. For part of these data: Binding can be weak; no strength is given. For part of these data: Tags and fused reporters may be left off the sequences shown. One block for each substance: values may come before it.

By UniProt entry, the sequences of proteins in these tests, tags left out. Where a name states a change or a piece, a line headed by the entry shows the natural chain unless it says otherwise.
UniProt P05205: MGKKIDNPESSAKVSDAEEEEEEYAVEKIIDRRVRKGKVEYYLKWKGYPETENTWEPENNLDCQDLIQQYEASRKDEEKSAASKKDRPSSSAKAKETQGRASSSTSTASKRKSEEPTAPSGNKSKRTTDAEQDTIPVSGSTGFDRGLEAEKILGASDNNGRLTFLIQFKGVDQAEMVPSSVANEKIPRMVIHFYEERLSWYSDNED
UniProt Q7JUZ7: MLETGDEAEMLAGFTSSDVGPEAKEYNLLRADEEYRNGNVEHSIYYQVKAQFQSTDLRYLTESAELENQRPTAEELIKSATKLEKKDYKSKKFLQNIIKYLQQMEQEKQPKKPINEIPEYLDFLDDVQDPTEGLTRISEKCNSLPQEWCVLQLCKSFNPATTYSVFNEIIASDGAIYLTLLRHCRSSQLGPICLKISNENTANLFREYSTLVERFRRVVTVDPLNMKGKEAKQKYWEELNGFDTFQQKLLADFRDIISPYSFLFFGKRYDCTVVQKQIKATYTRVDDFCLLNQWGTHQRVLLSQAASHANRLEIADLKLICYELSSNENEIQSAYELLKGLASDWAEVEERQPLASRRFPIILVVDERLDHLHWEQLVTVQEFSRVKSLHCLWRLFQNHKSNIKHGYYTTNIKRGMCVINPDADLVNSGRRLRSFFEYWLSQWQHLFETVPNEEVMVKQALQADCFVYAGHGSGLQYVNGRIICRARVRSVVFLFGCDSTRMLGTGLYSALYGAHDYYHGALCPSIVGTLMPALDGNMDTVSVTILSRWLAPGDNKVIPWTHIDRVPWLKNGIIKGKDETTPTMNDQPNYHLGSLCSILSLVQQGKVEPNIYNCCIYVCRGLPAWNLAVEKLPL

Legend:
[1] = biological target: T1, GST-HOAP (Drosophila) (UniProt Q95RV2); test: pull-down; 2 ug GST fusion protein bound to sepharose beads incubated with extracts of ~50 larval brains expressing HA-Sse, 1 h at 4 °C; 20 mM Hepes KOH, 20 mM NaF, 0.8% NP40; only the target purified
T1 sequence: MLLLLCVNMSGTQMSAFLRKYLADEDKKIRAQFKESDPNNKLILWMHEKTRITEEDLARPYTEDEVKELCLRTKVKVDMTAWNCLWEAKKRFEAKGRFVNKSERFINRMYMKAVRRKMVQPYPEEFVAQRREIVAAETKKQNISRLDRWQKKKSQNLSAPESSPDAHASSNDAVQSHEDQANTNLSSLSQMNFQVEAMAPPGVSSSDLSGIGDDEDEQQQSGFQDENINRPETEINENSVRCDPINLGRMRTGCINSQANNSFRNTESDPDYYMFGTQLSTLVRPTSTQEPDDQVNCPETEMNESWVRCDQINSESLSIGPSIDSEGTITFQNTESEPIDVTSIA

[2] = biological target: T2, GST-Ver (Drosophila) (UniProt Q9VTZ2); test: as above
T2 sequence: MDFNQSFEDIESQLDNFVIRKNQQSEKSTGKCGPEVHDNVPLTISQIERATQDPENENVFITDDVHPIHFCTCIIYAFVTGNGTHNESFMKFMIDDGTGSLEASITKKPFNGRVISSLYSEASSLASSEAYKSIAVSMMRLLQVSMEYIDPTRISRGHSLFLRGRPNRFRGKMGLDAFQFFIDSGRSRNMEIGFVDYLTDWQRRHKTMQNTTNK

[3] = biological target: T3, GST-Peo (Drosophila) (UniProt Q7K4V4); test: as above
T3 sequence: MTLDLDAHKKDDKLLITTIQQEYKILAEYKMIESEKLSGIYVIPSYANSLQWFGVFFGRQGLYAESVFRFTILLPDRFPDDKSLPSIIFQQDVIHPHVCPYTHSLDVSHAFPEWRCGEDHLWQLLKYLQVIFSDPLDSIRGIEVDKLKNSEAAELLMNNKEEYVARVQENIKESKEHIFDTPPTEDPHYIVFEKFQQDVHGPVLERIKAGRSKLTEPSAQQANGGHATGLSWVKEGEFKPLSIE

[4] = biological target: T4, GST-Moi (Drosophila) (UniProt B7Z0L8); test: as above
T4 sequence: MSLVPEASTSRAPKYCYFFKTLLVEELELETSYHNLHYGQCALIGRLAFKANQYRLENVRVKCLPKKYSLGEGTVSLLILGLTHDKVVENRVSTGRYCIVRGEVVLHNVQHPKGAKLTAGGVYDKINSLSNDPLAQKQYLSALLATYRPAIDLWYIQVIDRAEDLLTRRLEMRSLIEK

[5] = biological target: T5, Moi-HA (Drosophila) (UniProt B7Z0L8); test: co-IP; extracts of S2 cells co-expressing tagged Sse and a tagged telomeric protein; anti-FLAG affinity gel or anti-HA affinity matrix, 2 h at 4 °C; lysis buffer 50 mM Tris HCl pH 7.8, 150 mM NaCl, 0.1% NP 40, 1% Triton
T5 sequence: T4 sequence

[6] = biological target: HP1-HA (Drosophila) (UniProt P05205); test: as above
[7] = biological target: T6, FLAG-HipHop (Drosophila) (UniProt Q7JWP6); test: as above
T6 sequence: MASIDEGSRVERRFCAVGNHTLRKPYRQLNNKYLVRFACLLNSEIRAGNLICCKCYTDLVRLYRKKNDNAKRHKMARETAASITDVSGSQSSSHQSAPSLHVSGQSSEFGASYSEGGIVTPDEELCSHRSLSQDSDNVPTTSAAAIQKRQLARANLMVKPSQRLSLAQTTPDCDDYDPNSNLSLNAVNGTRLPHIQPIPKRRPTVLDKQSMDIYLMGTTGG

[8] = biological target: T7, HOAP-FLAG (Drosophila) (UniProt Q95RV2); test: as above
T7 sequence: T1 sequence

[9] = biological target: T8, Ver-FLAG (Drosophila) (UniProt Q9VTZ2); test: as above
T8 sequence: T2 sequence

binding [1]: binds
binding [2]: binds
binding [3]: no binding
binding [4]: binds
Substance: 6HA-Sse (Drosophila)

binding [5]: binds
binding [6]: binds
Substance: FLAG-Sse (from UniProt Q7JUZ7)

binding [7]: binds
binding [8]: binds
binding [9]: binds
Substance: HA-Sse (from UniProt Q7JUZ7)
